Reference: patent US20220160705A1, “METHODS FOR CONTROLLING PROSTAGLANDIN-MEDIATED BIOLOGICAL PROCESSES” (Cornell University, priority 2019, published 2022)
At least one compound was matched to its structure with a doubt left.

How the values were obtained:
C57BL/6J mice [1] = assay: Paw incision model of post-surgical pain, behavioral tests; assay type: in vivo; settings: i.p. 6 hours and 30 minutes before paw incision; KIRA6 25 mg/kg, MKC8866 20 mg/kg, Celecoxib 20 mg/kg; vs vehicle
Method: Plantar incision surgery was performed as described by Pogatzki & Raja (Anesthesiology 99, 1023 (October 2003)). Briefly, mice were anesthetized with isoflurane in oxygen (4% induction, 1.5%-2% for maintenance) and the right hind paw was aseptically cleaned with 10% povidone-iodine solution. Then, a 5 mm incision was made in the glabrous hind-paw skin from the heel to the base of the toes using a No. 11 scalpel and sterile technique. The underlying muscle and ligaments were elevated with a curved forceps and stretched for 6-8 seconds, without incising them. The incision was closed using 5.0 nylon mattress sutures.
(§1) All behavioral measurements were performed by a blinded observer before and after surgery (postoperative days 1-21) or acetic acid intraperitoneal injection (15-30 min). Animals were acclimated to the testing devices and/or places for 3 days, and baseline measurements were taken for at least 4 consecutive days before the surgery or acetic acid.
Mice were placed in individual acrylic chambers on an elevated mesh floor for 30-45 min before testing. Two spontaneous pain-relate behaviors were evaluated, rearings and paw flinches. Following the acclimatization period, the number of total vertical rearings and paw flinches were quantified during a 2-min period. Vertical rearings were defined as the number of times that the animal stood supporting its weight on both hind limbs. Vertical rearings are a normal behavior in rodents, thus a reduction of this behavior is indicative of a protective way to prevent pain due to movement, which mimics pain induced by surgeries in humans. Spontaneous flinching of the affected paw was quantified every time that the animal shacked the affected paw without any stimulation. Flinches of the injured paw is a pain-related behavior that is indicative of breakthrough pain, similar to intense spontaneous spike of pain in humans with postoperative pain.
Mechanical hypersensitivity was assessed after quantification of vertical rearings and spontaneous flinching. Mechanical withdrawal thresholds were calculated using the up-down method and applying force with calibrated Von Frey filaments (0.07-g, 0.17-g, 0.40-g, 0.60-g, 1.04-g, 1.37-g, and 2.0-g, Stoeling, Wood Dale, Ill., USA) to the plantar aspect of the paw for 5 seconds. Paw withdraws or flinching in response to a given applied force was noted as a positive response.
Hind paw weight bearing distribution was determined using an incapacitance tester apparatus (Stoelting, Ill., version 5.64). This is a test for non-reflexive behaviors that represents a spontaneous pain-related behavior that mimics postoperative pain behaviors in humans (protection of the surgery site from normal activities). Before surgery, animals were habituated for at least 3 days to the apparatus, in which animals stand with each hind paw resting on individual weight plates inside an acrylic chamber. The apparatus measures the body weight distributed between the two hind paws over a 3 second period and provides the average measurement. The average value of each hind paw was used to determine the weight distribution ratio (ispsilateral/contralateral side). A ratio below one indicates a greater weight bearing on the contralateral paw and was therefore considered as a pain-related behavior.
To determine whether pharmacological targeting of IRE1α could also modulate post-surgical pain. KIRA6 (FIG. 9A-9F) or MKC8866 (FIG. 10) was administered i.p. 6 hours and 30 minutes prior to paw incision surgery, and pain responses were monitored thereafter. […] Consistent with our results using conditional IRE1α-deficient mice, mechanical hypersensitivity remained unaltered upon administration of IRE1α inhibitors (FIGS. 9F and 10F). As a positive control, we administered equimolar amounts (20 mg/kg) of Celecoxib following the same scheme and route described above. […]

C57BL/6J mice [2] = assay: Acetic acid-induced writhing model of inflammatory visceral pain; assay type: in vivo; settings: i.p. 6 hours and 30 minutes before 0.9% v/v acetic acid (5 ml/kg); recorded for 30 minutes; KIRA6 25 mg/kg, MKC8866 20 mg/kg, Celecoxib 20 mg/kg; vs vehicle
Method: as §1
Writhing spontaneous pain behaviors were evaluated after intraperitoneal injection of 0.9% acetic acid (v/v, 5 ml/kg). The number of writhing responses was quantified immediately after acetic acid injection for 30 min in 5 min intervals by an observer blinded to genotype. Writings induced acetic acid are overt stretching behaviors indicative of abdominal pain, a phenomenon that is dependent upon mPGES-1 and PGE2 (Kamei et al. J Biol Chem 279, 33684 (Aug. 6, 2004); Trebino et al. Proc Nat Acad Sci USA 100, 9044 (Jul. 22, 2003)).
To determine if pharmacological disabling of IRE1α-XBP1 signaling could reduce inflammatory visceral pain, two commercially available inhibitors of IRE1α were employed: the kinase domain-specific inhibitor KIRA6 (25 mg/kg) and the RNAse domain-specific inhibitor MKC8866 (20 mg/kg).
These inhibitors were independently administered intraperitoneally to C57BL/6J mice 6 hours and 30 minutes before acetic acid injection, and writhing behaviors were recorded for 30 minutes.

Cc1ccc(-c2cc(C(F)(F)F)nn2-c2ccc(S(N)(=O)=O)cc2)cc1 [Celecoxib]
flinching activity after paw incision (C57BL/6J mice [1]): unaffected
grimace score post-surgery (C57BL/6J mice [1]): diminished
guarding score post-surgery (C57BL/6J mice [1]): diminished
hind paw weight bearing distribution after paw incision (C57BL/6J mice [1]): more balanced
mechanical hypersensitivity (mechanical threshold) after paw incision (C57BL/6J mice [1]): unaffected
rearing activity after paw incision (C57BL/6J mice [1]): unaffected
number of writhings after acetic acid injection (C57BL/6J mice [2]): decreased
